The values that follow come from the supplement of paper PMC10849652.

Protein sequences, listed by entry. Tags and fused reporters are not part of them. Lines headed by an entry give the natural chain unless they say otherwise; changes in a name come on top.
UniProt Q9Y4B5: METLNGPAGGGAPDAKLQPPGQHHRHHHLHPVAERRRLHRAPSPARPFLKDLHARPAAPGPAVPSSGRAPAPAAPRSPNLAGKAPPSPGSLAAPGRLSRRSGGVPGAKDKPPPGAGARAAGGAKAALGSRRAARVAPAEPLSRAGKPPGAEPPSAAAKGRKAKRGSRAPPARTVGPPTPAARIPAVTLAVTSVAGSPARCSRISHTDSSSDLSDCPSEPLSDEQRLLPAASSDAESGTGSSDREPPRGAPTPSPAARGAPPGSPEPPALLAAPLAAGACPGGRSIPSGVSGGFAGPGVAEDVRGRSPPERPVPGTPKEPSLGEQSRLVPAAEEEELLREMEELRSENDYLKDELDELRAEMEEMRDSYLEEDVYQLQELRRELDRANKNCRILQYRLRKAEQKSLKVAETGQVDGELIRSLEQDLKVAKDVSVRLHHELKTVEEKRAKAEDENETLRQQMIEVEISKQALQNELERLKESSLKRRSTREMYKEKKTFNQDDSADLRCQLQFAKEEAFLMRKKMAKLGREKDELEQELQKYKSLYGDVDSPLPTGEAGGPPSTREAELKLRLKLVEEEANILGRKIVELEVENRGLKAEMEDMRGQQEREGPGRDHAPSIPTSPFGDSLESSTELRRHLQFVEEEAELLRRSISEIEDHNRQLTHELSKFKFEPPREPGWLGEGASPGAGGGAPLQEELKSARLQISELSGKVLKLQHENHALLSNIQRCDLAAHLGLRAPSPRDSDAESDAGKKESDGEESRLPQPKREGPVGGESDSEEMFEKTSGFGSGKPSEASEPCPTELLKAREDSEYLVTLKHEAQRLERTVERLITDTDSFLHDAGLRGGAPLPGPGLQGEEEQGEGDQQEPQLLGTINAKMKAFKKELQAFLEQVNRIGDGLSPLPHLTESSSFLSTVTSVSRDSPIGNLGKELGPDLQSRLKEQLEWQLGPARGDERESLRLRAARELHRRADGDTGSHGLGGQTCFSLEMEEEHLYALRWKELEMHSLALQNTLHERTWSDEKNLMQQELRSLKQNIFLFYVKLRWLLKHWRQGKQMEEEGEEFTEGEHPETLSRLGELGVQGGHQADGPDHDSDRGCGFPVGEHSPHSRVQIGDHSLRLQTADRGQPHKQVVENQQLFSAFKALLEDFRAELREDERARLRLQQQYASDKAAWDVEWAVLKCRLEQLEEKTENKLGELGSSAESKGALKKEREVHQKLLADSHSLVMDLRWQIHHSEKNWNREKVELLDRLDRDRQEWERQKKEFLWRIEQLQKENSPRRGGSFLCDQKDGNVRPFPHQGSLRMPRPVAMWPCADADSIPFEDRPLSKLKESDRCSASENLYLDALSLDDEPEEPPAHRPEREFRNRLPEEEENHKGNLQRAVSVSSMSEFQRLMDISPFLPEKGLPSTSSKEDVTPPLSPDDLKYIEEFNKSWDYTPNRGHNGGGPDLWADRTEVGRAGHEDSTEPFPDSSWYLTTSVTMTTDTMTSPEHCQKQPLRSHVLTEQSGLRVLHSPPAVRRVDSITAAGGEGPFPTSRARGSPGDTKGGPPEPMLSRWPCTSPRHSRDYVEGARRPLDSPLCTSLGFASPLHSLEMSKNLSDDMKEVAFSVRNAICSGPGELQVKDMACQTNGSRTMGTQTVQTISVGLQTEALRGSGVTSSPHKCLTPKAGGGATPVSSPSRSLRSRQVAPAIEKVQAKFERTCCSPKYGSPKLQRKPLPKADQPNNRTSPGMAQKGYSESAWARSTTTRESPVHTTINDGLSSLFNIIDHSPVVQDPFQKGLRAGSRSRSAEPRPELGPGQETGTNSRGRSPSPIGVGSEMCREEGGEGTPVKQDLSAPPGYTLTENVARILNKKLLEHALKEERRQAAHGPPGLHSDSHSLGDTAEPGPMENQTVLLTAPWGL
UniProt Q15800: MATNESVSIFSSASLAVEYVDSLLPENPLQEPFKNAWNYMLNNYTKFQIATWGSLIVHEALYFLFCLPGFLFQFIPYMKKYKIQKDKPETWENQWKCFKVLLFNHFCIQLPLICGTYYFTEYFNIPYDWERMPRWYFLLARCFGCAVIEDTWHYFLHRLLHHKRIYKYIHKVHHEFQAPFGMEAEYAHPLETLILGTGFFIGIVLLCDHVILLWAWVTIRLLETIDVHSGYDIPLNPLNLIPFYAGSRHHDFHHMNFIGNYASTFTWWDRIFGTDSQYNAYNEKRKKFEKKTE
UniProt Q96E11: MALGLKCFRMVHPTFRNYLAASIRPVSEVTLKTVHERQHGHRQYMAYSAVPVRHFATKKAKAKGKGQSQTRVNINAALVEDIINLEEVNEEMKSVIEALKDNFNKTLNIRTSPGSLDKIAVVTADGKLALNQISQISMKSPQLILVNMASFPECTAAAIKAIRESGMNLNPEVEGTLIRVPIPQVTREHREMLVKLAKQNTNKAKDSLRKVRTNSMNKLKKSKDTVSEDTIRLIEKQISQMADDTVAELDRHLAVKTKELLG
UniProt Q13330: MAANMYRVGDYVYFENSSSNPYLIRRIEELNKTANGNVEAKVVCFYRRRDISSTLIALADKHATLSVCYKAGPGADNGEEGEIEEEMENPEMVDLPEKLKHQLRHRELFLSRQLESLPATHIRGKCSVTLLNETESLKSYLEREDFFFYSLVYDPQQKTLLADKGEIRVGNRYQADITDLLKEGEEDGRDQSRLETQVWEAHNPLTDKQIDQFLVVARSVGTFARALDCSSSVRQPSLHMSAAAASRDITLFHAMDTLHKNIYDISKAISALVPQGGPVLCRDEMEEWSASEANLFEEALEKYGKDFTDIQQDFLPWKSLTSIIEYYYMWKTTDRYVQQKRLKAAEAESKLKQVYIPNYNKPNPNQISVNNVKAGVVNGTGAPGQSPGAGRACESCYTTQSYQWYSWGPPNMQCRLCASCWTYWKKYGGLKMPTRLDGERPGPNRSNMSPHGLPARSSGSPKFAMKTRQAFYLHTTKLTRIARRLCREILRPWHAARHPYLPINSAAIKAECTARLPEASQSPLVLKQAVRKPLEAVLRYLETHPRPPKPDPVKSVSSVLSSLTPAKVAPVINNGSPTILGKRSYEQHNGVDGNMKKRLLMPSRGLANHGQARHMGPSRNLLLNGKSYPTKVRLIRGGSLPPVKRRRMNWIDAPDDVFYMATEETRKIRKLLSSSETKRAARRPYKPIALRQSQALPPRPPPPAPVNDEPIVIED
UniProt Q15390: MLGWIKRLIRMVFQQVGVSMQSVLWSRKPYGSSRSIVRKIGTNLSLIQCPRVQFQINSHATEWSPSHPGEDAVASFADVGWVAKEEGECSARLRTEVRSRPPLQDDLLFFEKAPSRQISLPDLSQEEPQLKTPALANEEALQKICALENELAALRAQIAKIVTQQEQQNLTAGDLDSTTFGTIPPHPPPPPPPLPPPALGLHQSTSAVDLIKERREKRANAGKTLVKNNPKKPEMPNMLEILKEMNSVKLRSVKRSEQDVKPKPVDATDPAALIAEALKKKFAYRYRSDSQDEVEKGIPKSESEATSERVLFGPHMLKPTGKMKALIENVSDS
UniProt Q9UBK8: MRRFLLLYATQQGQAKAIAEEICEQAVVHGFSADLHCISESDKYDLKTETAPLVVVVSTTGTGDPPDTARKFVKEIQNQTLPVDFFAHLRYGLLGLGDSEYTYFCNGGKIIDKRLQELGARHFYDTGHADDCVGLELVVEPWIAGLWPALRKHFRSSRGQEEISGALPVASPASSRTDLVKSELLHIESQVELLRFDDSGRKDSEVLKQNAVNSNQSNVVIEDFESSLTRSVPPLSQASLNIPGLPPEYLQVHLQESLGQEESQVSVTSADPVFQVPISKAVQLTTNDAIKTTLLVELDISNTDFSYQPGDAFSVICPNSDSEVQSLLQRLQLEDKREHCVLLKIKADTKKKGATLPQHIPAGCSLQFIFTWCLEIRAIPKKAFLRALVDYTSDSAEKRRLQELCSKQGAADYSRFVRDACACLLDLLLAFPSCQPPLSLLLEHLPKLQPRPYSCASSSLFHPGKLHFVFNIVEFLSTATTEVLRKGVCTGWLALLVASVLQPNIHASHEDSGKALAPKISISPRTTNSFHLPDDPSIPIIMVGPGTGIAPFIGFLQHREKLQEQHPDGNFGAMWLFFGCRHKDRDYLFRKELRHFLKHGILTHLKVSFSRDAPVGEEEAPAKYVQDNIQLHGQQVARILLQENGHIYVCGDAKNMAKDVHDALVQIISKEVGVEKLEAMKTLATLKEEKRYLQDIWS
MTHFD1, A0A384N5Y3, UniProt A0A384N5Y3, whole entry, looked up: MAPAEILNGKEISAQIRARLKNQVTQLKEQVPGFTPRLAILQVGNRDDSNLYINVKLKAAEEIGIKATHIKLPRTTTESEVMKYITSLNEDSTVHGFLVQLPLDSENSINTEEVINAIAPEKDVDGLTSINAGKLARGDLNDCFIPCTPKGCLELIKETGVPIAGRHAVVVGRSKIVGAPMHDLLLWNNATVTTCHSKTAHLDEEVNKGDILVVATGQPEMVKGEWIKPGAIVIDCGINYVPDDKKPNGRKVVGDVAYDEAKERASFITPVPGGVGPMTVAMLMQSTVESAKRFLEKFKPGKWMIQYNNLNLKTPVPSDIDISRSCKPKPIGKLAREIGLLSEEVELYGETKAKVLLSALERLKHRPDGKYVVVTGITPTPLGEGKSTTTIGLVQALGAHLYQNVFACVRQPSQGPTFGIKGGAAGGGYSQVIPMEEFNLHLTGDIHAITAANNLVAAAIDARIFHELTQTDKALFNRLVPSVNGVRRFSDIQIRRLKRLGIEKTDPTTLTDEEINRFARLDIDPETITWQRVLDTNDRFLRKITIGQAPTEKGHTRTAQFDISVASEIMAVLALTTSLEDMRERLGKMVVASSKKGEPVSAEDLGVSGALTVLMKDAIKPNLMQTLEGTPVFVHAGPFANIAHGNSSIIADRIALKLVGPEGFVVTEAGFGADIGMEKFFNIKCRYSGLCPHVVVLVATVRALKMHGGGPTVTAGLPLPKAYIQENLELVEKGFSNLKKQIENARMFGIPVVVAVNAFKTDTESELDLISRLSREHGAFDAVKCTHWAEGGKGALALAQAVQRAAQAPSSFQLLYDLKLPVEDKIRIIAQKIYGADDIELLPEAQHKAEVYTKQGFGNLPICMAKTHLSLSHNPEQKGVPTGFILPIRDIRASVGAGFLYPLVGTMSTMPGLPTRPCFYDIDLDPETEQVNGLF
UniProt P03905, whole entry, looked up: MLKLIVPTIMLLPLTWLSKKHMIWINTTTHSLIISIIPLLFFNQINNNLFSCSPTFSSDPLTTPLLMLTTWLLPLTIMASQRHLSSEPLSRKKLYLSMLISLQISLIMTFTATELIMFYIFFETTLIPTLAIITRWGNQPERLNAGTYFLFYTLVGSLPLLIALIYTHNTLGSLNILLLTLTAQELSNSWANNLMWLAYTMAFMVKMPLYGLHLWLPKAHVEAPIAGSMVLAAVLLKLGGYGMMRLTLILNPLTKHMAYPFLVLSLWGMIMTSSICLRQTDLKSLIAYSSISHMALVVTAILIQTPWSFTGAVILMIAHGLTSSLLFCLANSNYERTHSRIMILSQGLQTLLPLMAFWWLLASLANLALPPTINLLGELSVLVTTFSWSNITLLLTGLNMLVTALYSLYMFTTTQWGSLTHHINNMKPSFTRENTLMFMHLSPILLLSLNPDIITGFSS
UniProt Q13496: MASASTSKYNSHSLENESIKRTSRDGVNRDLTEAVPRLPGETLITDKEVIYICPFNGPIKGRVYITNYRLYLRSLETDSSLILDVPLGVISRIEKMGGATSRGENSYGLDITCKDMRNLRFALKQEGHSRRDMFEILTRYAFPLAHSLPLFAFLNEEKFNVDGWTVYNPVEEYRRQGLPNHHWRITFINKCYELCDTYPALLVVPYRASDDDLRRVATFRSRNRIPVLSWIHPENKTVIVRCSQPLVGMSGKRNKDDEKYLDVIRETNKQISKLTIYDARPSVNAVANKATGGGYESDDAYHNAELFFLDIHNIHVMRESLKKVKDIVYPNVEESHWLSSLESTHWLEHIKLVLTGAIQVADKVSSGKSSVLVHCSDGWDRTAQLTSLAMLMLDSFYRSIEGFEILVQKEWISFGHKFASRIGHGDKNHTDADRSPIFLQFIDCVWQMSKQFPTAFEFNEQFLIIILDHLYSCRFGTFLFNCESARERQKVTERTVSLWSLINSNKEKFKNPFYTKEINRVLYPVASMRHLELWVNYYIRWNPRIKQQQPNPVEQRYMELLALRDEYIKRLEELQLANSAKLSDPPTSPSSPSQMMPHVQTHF
UniProt P03928: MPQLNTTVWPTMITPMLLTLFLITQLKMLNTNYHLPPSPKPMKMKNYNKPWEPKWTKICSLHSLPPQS
UniProt Q9Y3D2: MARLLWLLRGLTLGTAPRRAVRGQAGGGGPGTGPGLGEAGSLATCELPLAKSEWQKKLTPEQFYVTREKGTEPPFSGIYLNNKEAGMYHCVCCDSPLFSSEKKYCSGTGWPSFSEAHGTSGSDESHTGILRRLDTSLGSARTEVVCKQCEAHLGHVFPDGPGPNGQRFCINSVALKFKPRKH
UniProt P13640: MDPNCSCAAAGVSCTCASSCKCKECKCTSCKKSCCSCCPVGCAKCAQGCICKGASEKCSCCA

Some of the results follow.

Compound in this test: COC(=O)N[C@@H](C)CNc1nccc(-c2cn(C(C)C)nc2-c2cc(Cl)cc(NS(C)(=O)=O)c2F)n1 [encorafenib]
The test is described as follows: log2 fold change, soluble protein after heating vs DMSO (PISA); higher = thermal stabilisation; K562 lysate, 10 uM; active = over 0.2 and 3.5 SD of the protein, either way, in both replicates (recomputed). Put shortly:
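A 30 min treatment with 10 μM compound was applied to crude K562 extract at 1 mg/mL protein in PBS pH 7.4 with 1 mM MgCl2. Heating for 3 min spanned 48°C-58°C, after which aliquots were pooled, adjusted to 0.5% NP-40 at 4°C and spun at 21,000xg for 90 min. TMTpro 16plex LC-MS/MS of the supernatant, with channel sums equalised, gave values recorded as log-two fold change in thermal stability against solvent controls, from duplicates.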
Turning to MTCL1 (UniProt Q9Y4B5), the log2 fold change is inactive: -0.014.
For the target MRPS23 (UniProt Q9Y3D9), the log2 fold change was inactive: -0.016.
Turning to MTMR1 (UniProt Q13613), the log2 fold change is inactive: 0.019.
Under MSMO1 (UniProt Q15800) stands inactive: 0.023.
As to MSI2 (UniProt Q96DH6), the log2 fold change was inactive: 0.144.
Under MRPS11 (UniProt P82912) stands inactive: 0.081; under MTOR (UniProt P42345), inactive: 0.016; under MRPL37 (UniProt Q9BZE1), inactive: -0.001.
The figure for MRPL38 (UniProt Q96DV4) is inactive: 0.039; for MRPS27 isoform 2 (UniProt Q92552) it is inactive: -0.018; for MRRF (UniProt Q96E11) it is inactive: -0.02.
In the case of MRPS6 (UniProt P82932), the log2 fold change was inactive: 0.019.
The figure for MRPL43 isoform 4 (UniProt Q8N983) is inactive: 0.036; for MTA1 (UniProt Q13330) it is inactive: -0.005; for MTFR1 (UniProt Q15390) it is inactive: 0.055.
Consider MRPS16 (UniProt Q9Y3D3), for which the log2 fold change is inactive: 0.037.
With MTRR isoform 1 (UniProt Q9UBK8), the log2 fold change was inactive: 0.048.
Under MTRES1 (UniProt Q9P0P8) stands inactive: 0.038.
Under MTHFD1, A0A384N5Y3 stands inactive: -0.016.
In the case of MT-ND4 (UniProt P03905), the log2 fold change was inactive: 0.101.
Under MTCH2 (UniProt Q9Y6C9) stands inactive: -0.01.
Under MRPS7 (UniProt Q9Y2R9) stands inactive: -0.007; under MTM1 (UniProt Q13496), inactive: 0.005; under MT-ATP8 (UniProt P03928), inactive: -0.071.
Consider MRPL55 isoform 2 (UniProt Q7Z7F7), for which the log2 fold change was inactive: -0.025.
Consider MT-CO1 (UniProt P00395), for which the log2 fold change is inactive: -0.037.
Under MRPS21 (UniProt P82921) stands inactive: 0.019; under MRPL50 (UniProt Q8N5N7), inactive: 0.09.
With MTRF1L (UniProt Q9UGC7), the log2 fold change was inactive: -0.006.
As to MSRB2 (UniProt Q9Y3D2), the log2 fold change was inactive: 0.148.
Turning to MRPS14 (UniProt O60783), the log2 fold change is inactive: 0.
As to MRPL9 (UniProt Q9BYD2), the log2 fold change is inactive: -0.04.
As to MRPS26 (UniProt Q9BYN8), the log2 fold change was inactive: 0.051.
Under MRPS9 (UniProt P82933) stands inactive: 0.03.
The figure for MTA2 (UniProt O94776) is inactive: 0.009; for MT1G (UniProt P13640) it is inactive: -0.016.
In the case of MSH6 (UniProt P52701), the log2 fold change was inactive: 0.019.
